Results reported in US20150239980A1.
These are yes or no findings as the source states them, for the method shown. Some results given as binding are weak or reduced against the parent protein; the word gives no strength.

Amino acid sequences for entries named in this document (tags omitted). A change or cut given only in a name is not applied to a line headed by its entry.
UniProt Q16363: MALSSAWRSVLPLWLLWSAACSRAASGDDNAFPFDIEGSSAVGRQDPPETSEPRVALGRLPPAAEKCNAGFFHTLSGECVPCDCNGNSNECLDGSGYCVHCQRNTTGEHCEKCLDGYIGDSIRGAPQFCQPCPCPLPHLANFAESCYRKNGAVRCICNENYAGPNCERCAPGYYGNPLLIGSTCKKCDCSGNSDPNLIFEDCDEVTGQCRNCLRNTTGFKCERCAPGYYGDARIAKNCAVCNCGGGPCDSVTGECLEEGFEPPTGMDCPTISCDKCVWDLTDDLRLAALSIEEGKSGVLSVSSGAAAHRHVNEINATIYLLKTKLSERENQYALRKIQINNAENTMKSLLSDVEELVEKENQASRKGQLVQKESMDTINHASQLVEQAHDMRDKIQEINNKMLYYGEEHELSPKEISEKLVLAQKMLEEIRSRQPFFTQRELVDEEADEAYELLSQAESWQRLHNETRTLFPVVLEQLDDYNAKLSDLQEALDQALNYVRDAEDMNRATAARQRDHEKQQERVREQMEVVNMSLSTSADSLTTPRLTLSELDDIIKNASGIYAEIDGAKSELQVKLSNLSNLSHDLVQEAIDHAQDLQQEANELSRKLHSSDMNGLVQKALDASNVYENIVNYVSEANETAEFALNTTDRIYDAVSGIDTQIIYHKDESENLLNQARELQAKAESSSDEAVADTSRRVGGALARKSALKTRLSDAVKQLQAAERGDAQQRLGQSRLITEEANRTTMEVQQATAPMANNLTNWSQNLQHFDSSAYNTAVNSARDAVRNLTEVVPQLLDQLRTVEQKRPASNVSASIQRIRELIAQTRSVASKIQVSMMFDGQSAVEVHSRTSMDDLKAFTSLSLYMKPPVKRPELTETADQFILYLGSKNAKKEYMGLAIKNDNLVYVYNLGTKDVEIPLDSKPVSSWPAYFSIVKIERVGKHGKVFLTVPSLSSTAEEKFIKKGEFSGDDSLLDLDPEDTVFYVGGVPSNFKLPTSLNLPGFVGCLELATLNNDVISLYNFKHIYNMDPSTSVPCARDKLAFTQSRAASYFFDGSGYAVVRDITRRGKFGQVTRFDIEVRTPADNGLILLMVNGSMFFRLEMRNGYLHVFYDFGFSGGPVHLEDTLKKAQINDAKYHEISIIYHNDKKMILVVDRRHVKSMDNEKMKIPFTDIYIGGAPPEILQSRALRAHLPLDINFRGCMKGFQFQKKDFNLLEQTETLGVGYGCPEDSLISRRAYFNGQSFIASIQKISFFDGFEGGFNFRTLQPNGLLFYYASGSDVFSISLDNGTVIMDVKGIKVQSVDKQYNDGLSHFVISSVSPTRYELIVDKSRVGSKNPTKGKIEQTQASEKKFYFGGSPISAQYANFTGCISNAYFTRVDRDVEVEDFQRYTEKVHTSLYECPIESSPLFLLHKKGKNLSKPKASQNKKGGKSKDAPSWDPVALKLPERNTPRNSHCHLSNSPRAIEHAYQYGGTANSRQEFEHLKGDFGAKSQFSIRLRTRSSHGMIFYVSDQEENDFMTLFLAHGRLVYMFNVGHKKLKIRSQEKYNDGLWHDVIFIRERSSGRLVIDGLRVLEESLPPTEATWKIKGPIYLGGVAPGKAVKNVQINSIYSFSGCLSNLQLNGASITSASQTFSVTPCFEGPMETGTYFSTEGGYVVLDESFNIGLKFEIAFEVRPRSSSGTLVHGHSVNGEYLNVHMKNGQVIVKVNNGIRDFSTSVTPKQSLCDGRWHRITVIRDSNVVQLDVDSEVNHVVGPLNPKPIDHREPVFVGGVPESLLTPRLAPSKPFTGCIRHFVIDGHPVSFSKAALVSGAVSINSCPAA

Target: T1, mouse MCAM expressed on transfected CHO cells (mouse) (UniProt Q8R2Y2)
T1 sequence (looked up): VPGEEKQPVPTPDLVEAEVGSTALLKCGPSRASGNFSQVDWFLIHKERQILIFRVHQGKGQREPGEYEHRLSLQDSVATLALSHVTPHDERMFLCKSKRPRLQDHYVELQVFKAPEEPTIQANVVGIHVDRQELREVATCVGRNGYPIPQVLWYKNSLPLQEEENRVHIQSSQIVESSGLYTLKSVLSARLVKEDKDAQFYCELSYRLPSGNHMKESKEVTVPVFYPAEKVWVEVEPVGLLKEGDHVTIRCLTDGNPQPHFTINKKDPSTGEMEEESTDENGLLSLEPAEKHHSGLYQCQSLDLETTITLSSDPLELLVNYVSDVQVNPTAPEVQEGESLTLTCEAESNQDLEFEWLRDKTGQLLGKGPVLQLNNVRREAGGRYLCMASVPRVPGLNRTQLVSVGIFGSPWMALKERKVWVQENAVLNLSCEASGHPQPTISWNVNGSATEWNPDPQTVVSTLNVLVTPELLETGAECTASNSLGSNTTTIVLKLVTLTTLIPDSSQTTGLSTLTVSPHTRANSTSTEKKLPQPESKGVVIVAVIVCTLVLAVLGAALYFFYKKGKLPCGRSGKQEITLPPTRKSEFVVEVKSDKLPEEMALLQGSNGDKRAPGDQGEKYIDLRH
Experiment: flow cytometry, mouse MCAM CHO cells, laminin 10 µg/ml, pan-laminin antibody

binding: binds
Substance: recombinant human laminin 411 (Biolamina) (from UniProt Q16363 25-1823; P07942 22-1786; P11047 34-1609) (ligand)
